US20210024646A1
Changes are numbered by the printed parent chain. These are yes or no findings as the source states them, for the method shown. Some entries that bind do so weakly or less than the wild type. Values belong to the binder of their own block, whether it stands above or below them.

Target: T1, CD73 on the surface of human tumor cells (human) (UniProt P21589)
T1 sequence (looked up): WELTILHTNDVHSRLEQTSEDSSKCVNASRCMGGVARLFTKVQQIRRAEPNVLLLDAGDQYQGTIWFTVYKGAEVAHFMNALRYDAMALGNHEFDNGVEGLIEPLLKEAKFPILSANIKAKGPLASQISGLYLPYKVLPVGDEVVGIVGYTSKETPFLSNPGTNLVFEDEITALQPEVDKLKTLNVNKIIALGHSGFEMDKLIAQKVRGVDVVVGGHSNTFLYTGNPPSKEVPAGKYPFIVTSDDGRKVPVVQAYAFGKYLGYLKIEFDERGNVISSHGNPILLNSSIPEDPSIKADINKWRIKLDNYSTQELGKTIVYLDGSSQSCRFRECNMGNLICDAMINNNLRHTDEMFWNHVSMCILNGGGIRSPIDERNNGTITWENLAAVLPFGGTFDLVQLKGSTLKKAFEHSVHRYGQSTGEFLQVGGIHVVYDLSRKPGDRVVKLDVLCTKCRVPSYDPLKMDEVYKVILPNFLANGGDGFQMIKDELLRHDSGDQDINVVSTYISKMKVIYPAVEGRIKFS
Assay: flow cytometry, MDA-MB-231 cells

binding: binds
B1: mAb002c-VH-QG (antibody, V domains shown)
VH: QVQLQQPGAELVKPGASVRLSCKASGYTLTSYWMHWVKKRPGQGLEWIGEINPSQGRSNYNEKFKSKATLTVDRSSSTVYMQLGSLTSEDSAVYYCARRGVSGNYFDYWGQGTTLTVSS
VL: DIKMTQSPSSMYASLGERVTMTCKASQDINTYLSWFQQKPGKSPKTLIYRSNILVDGVPSRFSGSRSGQDYYLTITSLEYEDMGIYYCLQYDEFPYTFGGGTKLELK

binding: binds
B2: mAb002c-VH-NA (antibody, V domains shown)
VH: B1 VH with Q55N, G56A
VL: B1 VL
